# No constants are given. Whether binding was seen depends on the method and setting. Some results given as binding are weak or reduced against the parent protein; the word gives no strength.
# Protein sequences, listed by entry. Tags and fused reporters are not part of them. Residues count along the entry.
# UniProt O75581, residues 20-1370: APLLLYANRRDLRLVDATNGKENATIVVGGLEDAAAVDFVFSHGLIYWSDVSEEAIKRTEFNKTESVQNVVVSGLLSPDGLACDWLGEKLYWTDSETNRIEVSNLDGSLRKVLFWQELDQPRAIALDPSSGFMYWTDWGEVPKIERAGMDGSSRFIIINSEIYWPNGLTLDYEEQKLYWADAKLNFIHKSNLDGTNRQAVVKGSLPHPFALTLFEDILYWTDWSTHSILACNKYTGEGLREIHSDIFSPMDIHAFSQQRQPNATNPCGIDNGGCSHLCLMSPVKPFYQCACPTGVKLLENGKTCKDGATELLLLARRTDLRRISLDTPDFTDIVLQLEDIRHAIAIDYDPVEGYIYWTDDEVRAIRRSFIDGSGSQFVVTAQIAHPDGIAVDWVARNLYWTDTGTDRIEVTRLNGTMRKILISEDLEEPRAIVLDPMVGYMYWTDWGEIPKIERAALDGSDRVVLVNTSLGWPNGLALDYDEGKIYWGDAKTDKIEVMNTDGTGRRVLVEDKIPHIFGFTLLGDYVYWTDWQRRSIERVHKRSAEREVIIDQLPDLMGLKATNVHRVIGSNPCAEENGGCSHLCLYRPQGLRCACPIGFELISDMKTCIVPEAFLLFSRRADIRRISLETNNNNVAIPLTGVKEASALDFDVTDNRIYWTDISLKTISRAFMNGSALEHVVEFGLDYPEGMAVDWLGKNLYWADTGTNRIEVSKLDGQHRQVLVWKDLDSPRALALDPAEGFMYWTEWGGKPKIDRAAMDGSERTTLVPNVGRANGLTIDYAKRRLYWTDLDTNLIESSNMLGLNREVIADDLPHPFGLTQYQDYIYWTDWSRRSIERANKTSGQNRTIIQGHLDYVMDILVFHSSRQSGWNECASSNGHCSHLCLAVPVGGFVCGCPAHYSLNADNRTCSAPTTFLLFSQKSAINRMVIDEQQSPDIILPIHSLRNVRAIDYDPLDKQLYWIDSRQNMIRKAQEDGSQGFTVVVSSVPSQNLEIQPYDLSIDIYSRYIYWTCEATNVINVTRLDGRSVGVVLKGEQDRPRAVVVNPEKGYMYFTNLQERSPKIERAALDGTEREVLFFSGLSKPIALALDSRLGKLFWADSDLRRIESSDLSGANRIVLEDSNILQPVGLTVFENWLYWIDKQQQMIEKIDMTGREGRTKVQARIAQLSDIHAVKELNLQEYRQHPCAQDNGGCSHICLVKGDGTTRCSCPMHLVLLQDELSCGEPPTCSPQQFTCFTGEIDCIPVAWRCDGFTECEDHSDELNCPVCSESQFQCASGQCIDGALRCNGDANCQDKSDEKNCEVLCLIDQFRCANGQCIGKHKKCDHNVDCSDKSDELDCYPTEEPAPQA
# B1: Dickkopf-1 (DKK1) (ligand, UniProt O94907 32-266, looked up)
# chain: TLNSVLNSNAIKNLPPPLGGAAGHPGSAVSAAPGILYPGGNKYQTIDNYQPYPCAEDEECGTDEYCASPTRGGDAGVQICLACRKRRKRCMRHAMCCPGNYCKNGICVSSDQNHFRGEIEETITESFGNDHSTLDGYSRRTTLSSKMYHTKGQEGSVCLRSSDCASGLCCARHFWSKICKPVLKEGQVCTKHRRKGSHGLEIFQRCYCGEGLSCRIQKDHHQASNSSRLHTCQRH
# Biological target: low-density lipoprotein receptor-related protein 6 (LRP6) (UniProt O75581)
# Test: LSPR spectroscopy; DKK1 immobilised on nanoparticles as ligand, LRP6 added as analyte; x axis is the LRP6 concentration (M), axis broken twice
binder,measurement,value
B1,binding,binds

# Source: patent US20210198329A1 (PASTEUR INSTITUTE OF IRAN, published 2021)
